PubChem BioAssay AID1259254 – NCATS, 2017
Here is an unselected part of about 59,000 reagents tested. In the full data, about 1,550 (2.6%) are marked active. 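G2 share is only a proxy for re-replication; each gene was hit by three separate siRNAs, and active genes were retested.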 The numbers tell different reagents against one gene apart. Not all columns of the deposit are shown. Not stated in the record: the amount of reagent.

Screen: 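Finding genes that stop cells copying their DNA twice in one cycle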 (primary screen)
Cells: human HCT116 colorectal cancer cells
Reagent: single siRNA against human genes
Timing: 3 days
Measurement: 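Imaged Hoechst DNA stain sorts each cell into a cycle phase by DNA amount; per plate, G2 fraction set to 0% for non-targeting and 100% for GMNN siRNA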
Scale: G2 robust z-score: higher = more G2 cells, more excess DNA replication
Rule for the call: 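Active siRNAs have a G2 robust z of 5 or more median absolute deviations over the median, which in these data means about 38% or higher of GMNN control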

The first 3 records, to show the layout:
target gene | reagent | G2 robust z-score | activity call
ERC1 (GeneID 23085) | 1 | -0.339 | inactive
ERC1 (GeneID 23085) | 2 | -0.539 | inactive
ERC1 (GeneID 23085) | 3 | 4.39 | inactive

The list itself, repeating the preview:
target gene | reagent | G2 robust z-score | activity call
ERC1 (GeneID 23085) | 1 | -0.339 | inactive
ERC1 (GeneID 23085) | 2 | -0.539 | inactive
ERC1 (GeneID 23085) | 3 | 4.39 | inactive
QTRT1 (GeneID 81890) | 1 | 6.26 | active
QTRT1 (GeneID 81890) | 2 | -0.823 | inactive
QTRT1 (GeneID 81890) | 3 | -0.783 | inactive
RASA4CP (GeneID 401331) | 1 | 0.857 | inactive
RASA4CP (GeneID 401331) | 2 | -1.49 | inactive
RASA4CP (GeneID 401331) | 3 | -0.209 | inactive
MC5R (GeneID 4161) | 1 | -0.72 | inactive
MC5R (GeneID 4161) | 2 | -0.454 | inactive
MC5R (GeneID 4161) | 3 | 1.75 | inactive
DRAXIN (GeneID 374946) | 1 | 1.19 | inactive
DRAXIN (GeneID 374946) | 2 | -0.13 | inactive
DRAXIN (GeneID 374946) | 3 | 1.72 | inactive
SH3D19 (GeneID 152503) | 1 | -0.436 | inactive
SH3D19 (GeneID 152503) | 2 | 1.46 | inactive
SH3D19 (GeneID 152503) | 3 | -0.645 | inactive
ZNF148 (GeneID 7707) | 1 | 0.482 | inactive
ZNF148 (GeneID 7707) | 2 | 2.46 | inactive
ZNF148 (GeneID 7707) | 3 | -0.918 | inactive
MAP4K4 (GeneID 9448) | 1 | 1.32 | inactive
MAP4K4 (GeneID 9448) | 2 | 1.49 | inactive
MAP4K4 (GeneID 9448) | 3 | 0.958 | inactive
LST1 (GeneID 7940) | 1 | -0.5 | inactive
LST1 (GeneID 7940) | 2 | 0.189 | inactive
LST1 (GeneID 7940) | 3 | -0.409 | inactive
OR6F1 (GeneID 343169) | 1 | 4.37 | inactive
OR6F1 (GeneID 343169) | 2 | -0.0383 | inactive
OR6F1 (GeneID 343169) | 3 | 0.318 | inactive
